Test results reported in PMC8384837.
Numbering of substitutions follows the chain as printed. Some of the results follow. For some assays here: At the low end of the ranking the order means little.

Tests used:
Details in all cases: yeast three-hybrid, YBZ-1, SC-Leu-His + 0.5 mM 3-AT, 4 days
[1] = biological target: T1, PUM1 PUF domain R5-SMS C1007S + R1008M + Q1011S (Homo sapiens) (UniProt Q14671)
T1 sequence: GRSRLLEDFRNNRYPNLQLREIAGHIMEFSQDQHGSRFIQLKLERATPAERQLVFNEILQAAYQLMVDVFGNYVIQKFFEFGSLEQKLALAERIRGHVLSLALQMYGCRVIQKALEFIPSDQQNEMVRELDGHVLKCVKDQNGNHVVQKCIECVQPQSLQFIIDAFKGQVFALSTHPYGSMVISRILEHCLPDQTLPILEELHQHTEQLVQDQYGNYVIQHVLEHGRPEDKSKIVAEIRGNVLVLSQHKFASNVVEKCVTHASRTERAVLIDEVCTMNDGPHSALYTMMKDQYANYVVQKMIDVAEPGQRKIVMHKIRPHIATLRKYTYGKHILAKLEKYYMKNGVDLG

[2] = biological target: T2, PUM1 PUF domain R5-SNG C1007S + R1008N + Q1011G (UniProt Q14671)
T2 sequence: T1 sequence with M181N, S184G

[3] = biological target: T3, PUM1 PUF domain R5-SNN C1007S + R1008N + Q1011N (Homo sapiens) (UniProt Q14671)
T3 sequence: T1 sequence with M181N, S184N

[4] = biological target: T4, PUM1 PUF domain R5-SNS C1007S + R1008N + Q1011S (UniProt Q14671)
T4 sequence: T1 sequence with M181N

[5] = biological target: T5, PUM1 PUF domain R5-SPR C1007S + R1008P + Q1011R (UniProt Q14671)
T5 sequence: T1 sequence with M181P, S184R

[6] = biological target: T6, PUM1 PUF domain R5-SQA C1007S + R1008Q + Q1011A (UniProt Q14671)
T6 sequence: T1 sequence with M181Q, S184A

[7] = biological target: T7, PUM1 PUF domain R5-SQG C1007S + R1008Q + Q1011G (Homo sapiens) (UniProt Q14671)
T7 sequence: T1 sequence with M181Q, S184G

[8] = biological target: T8, PUM1 PUF domain R5-SQS C1007S + R1008Q + Q1011S (Homo sapiens) (UniProt Q14671)
T8 sequence: T1 sequence with M181Q

[9] = biological target: T9, PUM1 PUF domain R5-SSR C1007S + R1008S + Q1011R (Homo sapiens) (UniProt Q14671)
T9 sequence: T1 sequence with M181S, S184R

[10] = biological target: T10, PUM1 PUF domain R5-SVG C1007S + R1008V + Q1011G (Homo sapiens) (UniProt Q14671)
T10 sequence: T1 sequence with M181V, S184G

[11] = biological target: T11, PUM1 PUF domain R5-SVS C1007S + R1008V + Q1011S (Homo sapiens) (UniProt Q14671)
T11 sequence: T1 sequence with M181V

[12] = biological target: T12, PUM1 PUF domain R5-SVT C1007S + R1008V + Q1011T (Homo sapiens) (UniProt Q14671)
T12 sequence: T1 sequence with M181V, S184T

[13] = biological target: T13, PUM1 PUF domain R5-TAR C1007T + R1008A + Q1011R (Homo sapiens) (UniProt Q14671)
T13 sequence: T1 sequence with S180T, M181A, S184R

[14] = biological target: T14, PUM1 PUF domain R5-TGR C1007T + R1008G + Q1011R (Homo sapiens) (UniProt Q14671)
T14 sequence: T1 sequence with S180T, M181G, S184R

[15] = biological target: T15, PUM1 PUF domain R5-TPR C1007T + R1008P + Q1011R (Homo sapiens) (UniProt Q14671)
T15 sequence: T1 sequence with S180T, M181P, S184R

[16] = biological target: T16, PUM1 PUF domain R5-TSR C1007T + R1008S + Q1011R (Homo sapiens) (UniProt Q14671)
T16 sequence: T1 sequence with S180T, M181S, S184R

[17] = biological target: T17, PUM1 PUF domain R5-WGF C1007W + R1008G + Q1011F (UniProt Q14671)
T17 sequence: T1 sequence with S180W, M181G, S184F

[18] = biological target: T18, PUM1 PUF domain R5-WHG C1007W + R1008H + Q1011G (Homo sapiens) (UniProt Q14671)
T18 sequence: T1 sequence with S180W, M181H, S184G

[19] = biological target: T19, PUM1 PUF domain R5-WHL C1007W + R1008H + Q1011L (Homo sapiens) (UniProt Q14671)
T19 sequence: T1 sequence with S180W, M181H, S184L

[20] = biological target: T20, PUM1 PUF domain R5-WHR C1007W + R1008H + Q1011R (Homo sapiens) (UniProt Q14671)
T20 sequence: T1 sequence with S180W, M181H, S184R

“GGCUAGAACUAGUGGAUCCCCCGGCGCCCGGCGGCUCGAGCCCGGGUAAGUGUAAAUAGUCUGCAUGCCGCCGGGCGCCAUGCCUGCAGGUCGACUCUAGAAAACAUG” gave a binding signal (log2 enrichment (interaction score)) [1] of -1.07, a binding signal (log2 enrichment (interaction score)) [2] of under -7.79 and a binding signal (log2 enrichment (interaction score)) [3] of -1.19. The binding signal (log2 enrichment (interaction score)) [4] was -3.29, the binding signal (log2 enrichment (interaction score)) [5] was under -6 and the binding signal (log2 enrichment (interaction score)) [6] was -3.19. It also gave a binding signal (log2 enrichment (interaction score)) [7] of 0.19, a binding signal (log2 enrichment (interaction score)) [8] of -1.64 and a binding signal (log2 enrichment (interaction score)) [9] of -1.5. The binding signal (log2 enrichment (interaction score)) [10] was -2.03, the binding signal (log2 enrichment (interaction score)) [11] was -1.58 and the binding signal (log2 enrichment (interaction score)) [12] was 0.04. The binding signal (log2 enrichment (interaction score)) [13] was -0.98, the binding signal (log2 enrichment (interaction score)) [14] was -1.84 and the binding signal (log2 enrichment (interaction score)) [15] was -0.91. It also gave a binding signal (log2 enrichment (interaction score)) [16] of -0.62, a binding signal (log2 enrichment (interaction score)) [17] of under -7.07 and a binding signal (log2 enrichment (interaction score)) [18] of -0.64. The binding signal (log2 enrichment (interaction score)) [19] was -3.03 and the binding signal (log2 enrichment (interaction score)) [20] was 1.02.
